Experimental data as given in the supplement of paper PMC8166895.
Where a name gives a salt, the structure may show the parent alone. Some of the results follow. Most values lie at the level of the controls, where differences are scatter.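 A single-replicate pilot screen of approved drugs and clinical or known-target compounds measured melting temperature via differential scanning fluorimetry. Top stabilizing hits raised the melting point by 2 °C or more; negative shifts indicate destabilization.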 Where a SMILES comes first, the peptide text is derived from it.

These compounds were tested on SARS-CoV-2 main protease (Mpro, nsp5) (assay: thermal shift ΔTm of Mpro relative to plate average Tm; higher = stronger thermal stabilization of Mpro (binding)). Conditions: 10 µM; protein concentration 1 µM.

| SMILES | thermal shift ΔTm of Mpro [°C] |
| --- | --- |
| CC(C)(C)c1ccccc1Oc1ncccc1NC(=O)Nc1ccc(OC(F)(F)F)cc1 | 0.0951 |
| Cc1ccc(-c2cc(C(F)(F)F)nn2-c2ccc(S(N)(=O)=O)cc2)cc1 [Celecoxib] | -0.173 |
| C[C@]12CC[C@@H]3c4ccc(O)cc4C[C@@H](CCCCCCCCC[S+]([O-])CCCC(F)(F)C(F)(F)F)[C@H]3[C@@H]1CC[C@@H]2O (some centres undefined) [Fulvestrant] | -0.0432 |
| COc1c(/C=C/C(=O)c2ccc(O)cc2)ccc(O)c1CC=C(C)C | -0.105 |
| CNC(=O)[C@@H](NC(=O)[C@H](CC(C)C)[C@H](O)C(=O)NO)C(C)(C)C [Marimastat(BB-2516)] | -0.103 |
| O=C(NCCCN1CCOCC1)c1ccc(Cl)cc1 [Eprobemide] | 0.0113 |
| Clc1ccc(C2(c3ccc(-c4cn[nH]c4)cc3)CCNCC2)cc1 | -0.182 |
| C=C[C@](C)(O)CC[C@@H]1[C@@]2(C)CCCC(C)(C)[C@@H]2CC[C@@]1(C)O [Sclareol] | -0.15 |
| O=C(O)CC(C(=O)O)n1c(O)c(C2=c3cc(Br)ccc3=NC2=O)sc1=S (centres undefined) | -0.083 |
| CC1(C)C(=O)N(c2ccc(C#N)c(C(F)(F)F)c2)C(=O)N1CCCCO | 0.264 |
| NC(=O)C1CCCc2c1[nH]c1ccc(Cl)cc21 (centres undefined) [EX 527 (Selisistat)] | -0.188 |
| CCS(=O)(=O)c1cccc(-c2cc(C(=O)NC3CCN(C)CC3)c(C)c3[nH]c4ncc(C)cc4c23)c1 | -0.0879 |
| COC(=O)[C@H](Cc1ccccc1)NC(=O)[C@@H](N)CC(=O)O [Aspartame] (H-Asp-Phe-OMe) | 0.0614 |
| Cc1ccc(S(=O)(=O)Nc2nc3ccccc3nc2Nc2ccc3nsnc3c2)cc1 [XL147 analogue] | 0.282 |
| O[C@@](Cc1ncc(CC2(C(F)(F)F)CC2)[nH]1)(c1ccc(-n2cccn2)cc1)C(F)(F)F | 0.23 |
| CCOC(=O)C1=C(N)Oc2ccc(Br)cc2C1C(C#N)C(=O)OCC (centres undefined) | -0.615 |
| N#C/C(=C1/SC[C@@H](c2ccc(Cl)cc2Cl)S1)n1ccnc1 [Luliconazole] | -0.195 |
| O=C1O[C@H]([C@@H](O)CO)C([O-])=C1O.[Na+] [Sodium ascorbate] | -0.0649 |
| CCCCOc1cc(C(=O)OCCN(CC)CC)ccc1N [Oxybuprocaine HCl] | -0.172 |
| O=[N+]([O-])c1ccc(Nc2nc(N3CCOCC3)nc(N3CCOCC3)n2)cc1 | 0.00358 |
| Cc1cc(Nc2cc(N3CCN(C)CC3)nc(Sc3ccc(NC(=O)C4CC4)cc3)n2)n[nH]1 [VX-680 (Tozasertib, MK-0457)] | -0.0607 |
| Clc1ccc2nsnc2c1NC1=NCCN1 [Tizanidine HCl] | 0.16 |
| CCCCOc1ccc(C(=O)Nc2ccc(F)cc2F)cc1 | -0.0215 |
| Nc1nc(OCc2cc(Br)cs2)c2[nH]cnc2n1 [Lomeguatrib] | -0.218 |
| COc1c(Nc2ncc(Cl)c(N[C@H]3[C@@H](C(N)=O)[C@@H]4C=C[C@H]3C4)n2)ccc2c1CC[C@@H](N1CCOCC1)CC2 | 0.148 |

Reformatted: entries from further up
SMILES | thermal shift ΔTm of Mpro [°C]
CCCCOc1ccc(C(=O)Nc2ccc(F)cc2F)cc1 | -0.0215
Nc1nc(OCc2cc(Br)cs2)c2[nH]cnc2n1 [Lomeguatrib] | -0.218
COc1c(Nc2ncc(Cl)c(N[C@H]3[C@@H](C(N)=O)[C@@H]4C=C[C@H]3C4)n2)ccc2c1CC[C@@H](N1CCOCC1)CC2 | 0.148

Going on with the list.

| SMILES | thermal shift ΔTm of Mpro [°C] |
| --- | --- |
| Cc1cc2cc3c(C)cc(=O)oc3c(C)c2o1 [Trioxsalen] | -0.011 |
| CC1(C)CC[C@]2(C(=O)O)[C@H](O)C[C@]3(C)C(=CC[C@@H]4[C@@]5(C)C[C@H](O)[C@H](O)[C@@](C)(CO)[C@@H]5CC[C@]43C)[C@@H]2C1 [Polygalacic acid] | -0.0864 |
| CC(C)Oc1ccc2c(=O)c(-c3ccccc3)coc2c1 [Ipriflavone (Osteofix)] | -0.0303 |
| NC1(Cc2ccc(Cl)cc2)CCN(c2ncnc3[nH]ccc23)CC1 | -0.00429 |
| Cc1cc(C(C)Nc2ccccc2)c2nc(N3CCOCC3)cc(=O)n2c1 (centres undefined) | 0.132 |
| COc1cccc2c1C(=O)c1c(O)c3c(c(O)c1C2=O)C[C@@](O)(C(=O)CO)C[C@@H]3O[C@H]1C[C@H](N)[C@H](O[C@@H]2CCCCO2)[C@H](C)O1 [Pirarubicin] | 0.278 |
| CCOC(=O)C1=C(N)Oc2ccc(Cl)cc2C1C(C#N)C(=O)OCC (centres undefined) | -0.928 |
| COC(=O)C1=CO[C@@H](O)[C@@H]2C(CO)=CC[C@H]12 [Genipin] | -0.0261 |
| Cc1nc(C(=O)NCC(=O)O)c(O)c2ccc(Oc3ccccc3)cc12 | -0.118 |
| COc1cc2c(NC3CCN(C(C)C)CC3)nc(N3CCC(F)(F)CC3)nc2cc1OCCCN1CCCC1 | 0.105 |
| CC(C)(NC(=O)O[C@@H]1CN2CCC1CC2)c1csc(-c2ccc(F)cc2)n1 [Ibiglustat] | -0.0188 |
| O=C1C=CC(=O)c2ccccc21 [1,4-Naphthoquinone] | -1.7 |
| CCCCCCNC(=O)n1cc(F)c(=O)[nH]c1=O [Carmofur] | 0.247 |
| CCC[C@@H]1C[C@@H](C(=O)N[C@@H]([C@H]2O[C@H](SC)[C@H](OP(=O)(O)O)[C@@H](O)[C@H]2O)[C@H](C)Cl)N(C)C1 [Clindamycin phosphate] | 0.38 |
| CC(C)n1cnc2c(Nc3cccc(Cl)c3)nc(NCCO)nc21 | 0.0359 |
| COc1ccc(Cl)cc1C(=O)NCCc1ccc(S(=O)(=O)NC(=O)NC2CCCCC2)cc1 [Glyburide] | -0.0162 |
| Nc1nc(=O)n([C@@H]2CS[C@H](CO)O2)cc1F [Emtricitabine] | -0.0459 |
| CN(C)CCc1ccc(O)cc1 [Hordenine] | 0.264 |
| CC#C[C@]1(O)CC[C@H]2[C@@H]3CCC4=CC(=O)CCC4=C3[C@@H](c3ccc(N(C)C)cc3)C[C@@]21C [Mifepristone] | -0.204 |
| CCc1cccc(CC)c1NC(=O)N1Cc2[nH]nc(NC(=O)c3ccc(N4CCN(C)CC4)cc3)c2C1 | 0.174 |
| COC(=O)N[C@@H](C)CNc1nccc(-c2cn(C(C)C)nc2-c2cc(Cl)cc(NS(C)(=O)=O)c2F)n1 [Encorafenib] | 0.185 |
| CC[C@@H]1C(=O)N(C)c2cnc(Nc3ccc(C(=O)N[C@H]4CC[C@H](N5CCN(CC6CC6)CC5)CC4)cc3OC)nc2N1C(C)C [Volasertib (BI 6727)] | -0.188 |
| CCn1c(=O)c2c(nc(/C=C/c3ccc(OC)c(OC)c3)n2C)n(CC)c1=O [Istradefylline] | -0.0239 |
| CN([C@@H](Cc1ccc(OS(=O)(=O)c2cccc3cnccc23)cc1)C(=O)N1CCN(c2ccccc2)CC1)S(=O)(=O)c1cccc2cnccc12 | -0.466 |
